Laboratory results taken from the supplement of paper PMC8497498.
± gives the standard deviation of the averaged measurements. The list shows a part of the results. The data scatter; read single values as rough.

Tests used:
Conditions in all cases: 10 µM
[1] = system: Plasmodium vivax liver stage (primary human hepatocyte culture); test: hypnozoite quantity inhibition (% inhibition); higher = more active against hypnozoites
[2] = system: Plasmodium vivax liver stage (primary human hepatocyte culture); test: schizont net growth area inhibition (% inhibition); higher = more active against liver schizonts
[3] = system: primary human hepatocytes; test: hepatic nuclei reduction relative to DMSO (100 - % of negative control); higher = more toxic to hepatocytes
[4] = assay mode: Prophylactic (treated before or shortly after infection), fixed day 6 post-infection
[5] = assay mode: Radical Cure (treated from day 5 post-infection for 3 days), fixed day 8 post-infection

SMILES | hypnozoite quantity inhibition [1, 4] | hypnozoite quantity inhibition [1, 5] | schizont net growth area inhibition [2, 4] | schizont net growth area inhibition [2, 5] | hepatic nuclei reduction [3, 4] [%] | hepatic nuclei reduction [3, 5] [%]
N=c1n(CCN2CCCCC2)c2ccccc2n1CC(=O)c1ccc(Cl)c(Cl)c1 | 44.8 | 51.9 | 58.9 | 8.5 | -18 | 14
O=C(NC1CCCC1)c1ccc(N2CCC(NCc3cccc(C(F)(F)F)c3)CC2)cc1 | -6.3 | 12.8 | -26.5 | 18.8 | -2 | -3
O=C([C@@H](c1ccc(Cl)cc1)c1cccnc1)N1CCN(c2ccc(C(F)(F)F)cc2)CC1 | -51 | -10 | -26.9 | -11.7 | -5 | -6
FC(F)(F)c1cccc(Nc2nc3ccccc3nc2Nc2cccc(C(F)(F)F)c2)c1 | -28.8 | 35.9 | 51.5 | 37.5 | -18 | -6
CCOc1ccc(Nc2c3ccccc3nc3ccccc23)cc1 | 12 | 40.1 | 7.4 | 29.4 | -6 | -2
Clc1ccc2[nH]c3c(NCCCN4CCOCC4)ncnc3c2c1 | -10.1 | -8.9 | -14.4 | -106 | 1 | -10
COC(=O)c1ccc(C2C3=C(O)CC(c4ccc(F)cc4)CC3=Nc3ccccc3N2C(=O)c2ccccc2)cc1 (stereo not given) | 84.2 | -7.6 | 90.5 | 28.4 | -7 | 5
CCCCOC(=O)Nc1cc2nc(C3CCCCC3)[nH]c2cc1N1CCCC1 | -2 | -85 | 14.8 | -4.7 | -8 | -5
CC1CCC2C(C)C(O)OC3OC4(C)CCC1C32O4 (stereo not given) | 14 | -9 | -17.4 | -68 | -6 | -5
Cc1nnc(NCc2cccc(Cl)c2)c2ccccc12 | -2 | -12 | 15.6 | -159 | -8 | -6
COc1ccc(C2C(C(=O)Nc3cccc(OC)c3)c3ccccc3C(=O)N2C2CCCCC2)cc1 (stereo not given) | 4.4 | -14.4 | -30.3 | -61.2 | 0 | -6
CCCn1c(CNc2ccccc2O)nc2ccccc21 | 3 | -18 | 29.9 | -29.5 | -7 | -9
CC(C)=CCN1CCC(C(=O)Nc2ccc(-c3nc4ccccc4[nH]3)cc2)CC1 | 0.6 | 31.9 | -24 | 15.5 | 0 | -6
CC1CCCN(C(=O)C(C)Nc2cc(Cl)ccc2N2CCOCC2)C1 (stereo not given) | 32 | 53 | -17.5 | 37.1 | -3 | -2
CCc1nc(N)nc(N)c1OCCCOc1ccccc1CCC(=O)O | -24 | 52 | 97 | 62.2 | -9 | -6
COc1cc(C(=O)ON=C(N)Cc2cccc3ccccc23)cc(OC)c1OC | -25.8 | 56.5 | -63.5 | 26.1 | -13 | 3
Nc1ncnc2c1c(Cc1cccc3ccccc13)nn2CC1CCNCC1 | -13 | 55 | -75.4 | 47.2 | 1 | 4
Nc1nc(O)c(Br)c(-c2ccccc2)n1 | -32 | -17 | 20.8 | -8.2 | 1 | 4
CONC(=N)c1ccc(-c2ccc(-c3ccc(C(=N)NOC)cc3)o2)cc1 | 0 | 10 | -113 | -51.3 | -20 | -34
CCCCc1ccc(NS(=O)(=O)c2cc3c4c(c2)CCN4C(=O)CC3)cc1 | -5 | 19.8 | -35.4 | -1.7 | -3 | -1
CCc1ccc(C(NCc2nc(N)nc(N(C)C)n2)C(C)C)cc1 (stereo not given) | -72 | -28 | -57.4 | -127 | -15 | -6
CCN(CC)S(=O)(=O)c1ccc(C(=O)Nc2cc(C)nn2-c2nc(C)c(C)c(=O)[nH]2)cc1 | 1 | -25 | -9.4 | -37.9 | -1 | 0
CCc1nc2ccc(C(=O)NCc3ccc4c(c3)OCO4)cn2c1N(C)Cc1cccs1 | 21 | -20 | 11.5 | 5.9 | -1 | 0
CCOc1ccc(-c2nc(NC(=O)CS(=O)(=O)c3ccccc3)sc2C)cc1 | 28 | -2 | 17.4 | 8.9 | 1 | 3
CCc1ccc([C@@H]2C[C@H](C(F)(F)F)n3ncc(C(=O)NCc4ccc(OC)cc4)c3N2)cc1 | -19 | -25 | -43.8 | -181 | -11 | -6
COc1ccc(-c2cc(=O)oc3c4c(ccc23)OCN(Cc2ccc(F)cc2)C4)cc1 | 10.1 | -3.5 | -6.4 | 19 | 0 | -7
Nc1ncc(-c2cn[nH]c2)cc1-c1nc2cc(Cl)cnc2[nH]1 | 58 | -33 | 84.4 | 93.5 | 8 | 4
CN1CCN(c2nccc3[nH]c(-c4cccc(F)c4)cc23)CC1 | -34 | -12 | -47.8 | 5.5 | -6 | 3

SMILES | hypnozoite quantity inhibition [1, 4] | hypnozoite quantity inhibition [1, 5] | schizont net growth area inhibition [2, 4] | schizont net growth area inhibition [2, 5] | hepatic nuclei reduction [3, 4] [%] | hepatic nuclei reduction [3, 5] [%]
CCC(C)NC(=O)c1ccc(NC(=O)C2(c3ccccc3)CCCC2)cc1 (stereo not given) | 0 | -15 | -6.2 | 36.7 | -1 | 6
Cn1c(C(=O)c2cccc3ccccc23)nc2ccccc21 | 37.3 | 15.6 | 18.5 | 26.8 | 6 | 0
O=C(CN1CCOCC1)Nc1ccc2ncnc(Nc3ccc(OCc4cccc(F)c4)c(Cl)c3)c2c1 | -44 | -51 | 24.5 | -78.2 | -11 | 4
COc1ccc(S(=O)(=O)Nc2ccc(CN3CCN(C(=O)c4cccc(C#N)c4)CC3)cc2)cc1 | 56 | 24 | 29.2 | -9.7 | 5 | -3
COc1ccccc1CNC(=O)c1cc(C2CC2)nc2c1cnn2C(C)C | 24 | -4 | -15.2 | -117 | -6 | 0
CN(C)c1cc(NC(=O)Nc2ccccc2)c2ccccc2n1 | 39 | -15 | 42.7 | -60.2 | 4 | 4
C[C@]12CC[C@@H]3c4ccc(O)cc4CC[C@H]3[C@@H]1CC[C@@H]2O | -47 | 26 | -16.6 | 10.1 | -4 | -3
Cc1ccc(Cl)cc1N1CCN(CCCNC(=O)C2CCN(c3nc4ccccc4[nH]3)CC2)CC1 | -24.6 | 42.8 | -15.1 | -2.4 | 15 | -5
Cc1cc(NCCc2ccccc2)nc(NC(=N)Nc2ccc(Cl)cc2)n1 | 34 | -135 | 37.4 | -375 | 4 | -11
CCN(CC)CCCC(C)Nc1ccnc2cc(Cl)ccc12 (stereo not given) | -35 | 25.3 ± 22 | -79.9 | 36 ± 72 | -4 | -3.5 ± 3.5
Cn1c(=O)n(C)c2cc(CNCCNc3ccnc4cc(Cl)ccc34)ccc21 | -41.4 | 45 | -14.5 | -18.3 | 5 | 3
O=C(N[C@H](Cc1ccccc1)C(=O)Nc1ccccc1N1CCOCC1)c1cccs1 | 13 | -10 | 10.1 | -83 | -7 | 3
O=C(Cn1ccnc1[N+](=O)[O-])NCc1ccccc1 | 28 | 22 | 11.8 | -15.1 | 2 | -5
CCOc1ccccc1NC(C)C(=O)Nc1cc(C(F)(F)F)ccc1N1CCOCC1 (stereo not given) | -3 | 16 | -29.5 | 26.3 | -8 | -3
OC1CCCCC1C1(NC(=S)Nc2ccccc2)CCCCC1 (stereo not given) | 37.9 | 15.6 | 92.4 | -26.8 | -6 | 3
COc1ccccc1OCCCCn1c(C2CC2)nc2ccccc21 | 11 | -7 | 40.5 | -83.4 | 1 | -7
COc1cccc(Cn2c(Oc3ccccc3)nc3c2c(=O)n(C)c(=O)n3C)c1 | -8.7 | 29 | -11.7 | 31.4 | -3 | -4
CCOc1cc2c(cc1OCC)C(c1cc(C)c(O)c(C)c1)NCC2 (stereo not given) | 27.2 | 53.7 | 34.7 | -10.6 | -2 | 10
CC(C)(C)n1nc(Cc2ccc(F)c(Cl)c2)c2c(N)ncnc21 | -34 | -10 | 16.2 | -107 | -8 | 5
CN(C)CCCNc1c2ccccc2nc2ccccc12 | 79 | 67.9 | 103 | 90 | 45 | 54
COc1ccc(CCn2c(=N)c(C(=O)NCc3cccnc3)cc3c(=O)n4cccc(C)c4nc32)cc1 | -1.3 | 26.7 | -13.2 | -34.9 | -8 | 8
O[C@H](c1cc(C(F)(F)F)nc2c(C(F)(F)F)cccc12)[C@@H]1CCCCN1 | 4 ± 40 | 38 ± 14 | 63.2 ± 6.2 | 55.4 ± 52 | 8.5 ± 0.71 | 5.5 ± 6.4
CCOc1ccccc1CN1CCc2nc3cc(C(C)(C)C)nn3c(O)c2C1 | 8.2 | 7.4 | 49.8 | 64.6 | 3 | -10
C=C[C@H]1C[N@@]2CC[C@H]1C[C@H]2[C@H](O)c1ccnc2ccc(OC)cc12 | 0 | 12 | 29.2 | 48.5 | -10 | -6
Cc1cc2ccccc2n1CC(=O)N1CC(C(=O)N2CCCCC2)Oc2ccccc21 (stereo not given) | 31 | -25 | 51.8 | -89.5 | 3 | -5
OCc1ccc(-c2cncc(Nc3cccc(Cl)c3)c2)cc1 | 39 | 6 | 59.5 | 81.4 | -1 | -1
O=C1COCc2ccc(Br)cc2N1Cc1ccc(C(F)(F)F)cc1 | -15 | 7 | -1.9 | -28.5 | 0 | -10

Reprinted at random: five entries already listed
SMILES | hypnozoite quantity inhibition [1, 4] | hypnozoite quantity inhibition [1, 5] | schizont net growth area inhibition [2, 4] | schizont net growth area inhibition [2, 5] | hepatic nuclei reduction [3, 4] [%] | hepatic nuclei reduction [3, 5] [%]
COc1ccccc1CNC(=O)c1cc(C2CC2)nc2c1cnn2C(C)C | 24 | -4 | -15.2 | -117 | -6 | 0
CN(C)CCCNc1c2ccccc2nc2ccccc12 | 79 | 67.9 | 103 | 90 | 45 | 54
C=C[C@H]1C[N@@]2CC[C@H]1C[C@H]2[C@H](O)c1ccnc2ccc(OC)cc12 | 0 | 12 | 29.2 | 48.5 | -10 | -6
O=C(Cn1ccnc1[N+](=O)[O-])NCc1ccccc1 | 28 | 22 | 11.8 | -15.1 | 2 | -5
Cc1cc(NCCc2ccccc2)nc(NC(=N)Nc2ccc(Cl)cc2)n1 | 34 | -135 | 37.4 | -375 | 4 | -11
